# According to patent publication US20100008972A1, “Film for active ingredients dermal and transdermal administration” (LISAPHARMA S.P.A., priority 2000, published 2010):
# Experiment: In vivo active ingredient release by tape stripping of stratum corneum
# Parameters: species or system volunteers
# Conditions: FIG. 4
# Method: The in vivo active ingredient release from the film prepared as per Example 1 was evaluated on volunteers, 24 to 26 years of age, using the tape stripping technique, proposed by the US FDA for the determination of the bioavailability/bioequivalence of topical formulations (US FDA, Topical dermatological drug products, NDAs and […] vivo bioavailability, bioequivalence, in vitro release and associated studies, CDAR, 1998). This technique is based on the removal of small portions of stratum corneum by repeated applications of the adhesive tape to the skin and successive extraction and analysis of the active ingredient contained therein. To go into details, single-layer film portions obtained as per Example 1 were applied to the volunteers' forearm moistened skin and maintained there, with or without iontophoretic applications, for a period of 30 min. After said period, they were removed and tape stripping was carried out. […] Each adhesive tape was weighed before and after application: the quantity of stratum corneum removed every time was determined. […] The eluent used was a mixture of acetonitrile (14 parts) and 0.05 M potassium phosphate (86 parts), pumped at a flow rate of 1 milliliter per minute and monitored by spectrophotometer at 216 nm. The detected amount of lidocaine was normalised in respect of the amount of stratum corneum contained in each sample of adhesive tape.
compound,measurement,setting,value
CCN(CC)CC(=O)Nc1c(C)cccc1C [lidocaine],average distribution of lidocaine in the stratum corneum vs. distance from the dermal surface,"stratum corneum deeper layers (adhesive tapes 6-10, 11-15)",non-negligible amounts also pass into the deeper layers
same,average distribution of lidocaine in the stratum corneum vs. distance from the dermal surface,stratum corneum upper layers (adhesive tapes 1-5),especially present in the stratum corneum upper layers
